# Test results reported in PMC11977203.
# The chains behind the UniProt entries cited, without tags or fusion partners.
# UniProt Q9UNE7: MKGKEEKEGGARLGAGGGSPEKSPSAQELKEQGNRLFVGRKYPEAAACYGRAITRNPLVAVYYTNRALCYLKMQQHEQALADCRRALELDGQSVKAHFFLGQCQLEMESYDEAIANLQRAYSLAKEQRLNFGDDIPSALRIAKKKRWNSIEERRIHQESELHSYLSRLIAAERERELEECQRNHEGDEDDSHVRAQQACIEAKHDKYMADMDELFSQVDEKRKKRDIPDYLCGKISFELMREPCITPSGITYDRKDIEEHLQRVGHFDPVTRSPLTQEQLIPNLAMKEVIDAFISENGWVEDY
# Residue numbers refer to the chain shown, from its start. No constants are given. Whether binding was seen depends on the method and setting. Binding seen in cells or lysates may run through a third protein. Some entries that bind do so weakly or less than the wild type.
# What was measured:
# BCAT1 K39R mutant = biological target: T1, BCAT1 K39R mutant (UniProt P54687); test: co-IP; CHIP with wild-type BCAT1 or BCAT1 K39R mutant in U251 cells, with or without SIRT5 overexpression; western blot
# T1 sequence: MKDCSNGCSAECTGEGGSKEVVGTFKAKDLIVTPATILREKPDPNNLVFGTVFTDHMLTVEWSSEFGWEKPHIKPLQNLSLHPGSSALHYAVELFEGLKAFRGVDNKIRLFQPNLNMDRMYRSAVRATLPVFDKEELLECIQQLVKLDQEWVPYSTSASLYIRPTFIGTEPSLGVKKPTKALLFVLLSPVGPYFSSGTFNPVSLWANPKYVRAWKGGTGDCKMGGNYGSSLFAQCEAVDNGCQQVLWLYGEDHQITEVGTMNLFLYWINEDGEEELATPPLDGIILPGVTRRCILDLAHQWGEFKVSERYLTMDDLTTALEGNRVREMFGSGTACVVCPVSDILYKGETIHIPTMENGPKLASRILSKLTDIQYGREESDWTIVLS
# wild-type BCAT1 = biological target: T2, wild-type BCAT1 (UniProt P54687); test: as above
# T2 sequence: T1 sequence with R39K
substance,measurement,setting,value
Flag-tagged CHIP (from UniProt Q9UNE7 1-303) (enzyme),binding,BCAT1 K39R mutant,binds
same,binding,wild-type BCAT1,binds
